Results deposited as PubChem BioAssay AID1259308 (NCATS, 2017)
Purpose: 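Candidate targets for better recombinant protein yield in mammalian cells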 (primary screen). Cell system: human HEK293 embryonic kidney cells stably expressing firefly luciferase (HEK-CMV-Luc2-Hygro). Reagent: single siRNA against human genes, 0.8 pmol siRNA per well. Duration: 72 h. Measurement: 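Luciferase light (ONE-Glo) measured on one replicate plate set and viability (CellTiter-Glo) on the other, scaled to a negative control siRNA, with robust z-scores and luciferase per cell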. Scale: total luciferase, z-score: higher = more reporter protein produced. Hit rule: 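An siRNA counts as active if its total luciferase robust z-score exceeds 3; genes with two or more such siRNAs out of three were retested with fresh siRNAs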. Calls: active = raised luciferase; inactive = no rise.
This is one part, drawn at random, of about 59,000 deposited reagents. About 1,510 of all reagents (2.6%) count as active. 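Calls use total luciferase alone and ignore viability, so some active siRNAs may act by altering cell number.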 Reagents against one gene are numbered here. Further read-outs or replicates are left out here.

gene symbol,reagent no.,"total luciferase, z-score",call
LRFN1,1,2.51,inactive
LRFN1,2,0.207,inactive
LRFN1,3,-0.401,inactive
MARK3 (microtubule affinity regulating kinase 3),1,0.37,inactive
MARK3 (microtubule affinity regulating kinase 3),2,2.87,inactive
MARK3 (microtubule affinity regulating kinase 3),3,0.564,inactive
TRMT2B (tRNA methyltransferase 2B),1,0.0439,inactive
TRMT2B (tRNA methyltransferase 2B),2,1.16,inactive
TRMT2B (tRNA methyltransferase 2B),3,0.862,inactive
SLC25A16,1,-0.418,inactive
SLC25A16,2,1.99,inactive
SLC25A16,3,0.103,inactive
ATP8A1 (ATPase phospholipid transporting 8A1),1,-0.915,inactive
ATP8A1 (ATPase phospholipid transporting 8A1),2,0.268,inactive
ATP8A1 (ATPase phospholipid transporting 8A1),3,-2.02,inactive
KRTAP4-12 (keratin associated protein 4-12),1,1.42,inactive
KRTAP4-12 (keratin associated protein 4-12),2,-0.613,inactive
KRTAP4-12 (keratin associated protein 4-12),3,-0.436,inactive
PRPF19 (pre-mRNA processing factor 19),1,2.36,inactive
PRPF19 (pre-mRNA processing factor 19),2,3.98,active
PRPF19 (pre-mRNA processing factor 19),3,4.18,active
HS3ST5 (heparan sulfate-glucosamine 3-sulfotransferase 5),1,0.0913,inactive
HS3ST5 (heparan sulfate-glucosamine 3-sulfotransferase 5),2,0.67,inactive
HS3ST5 (heparan sulfate-glucosamine 3-sulfotransferase 5),3,0.104,inactive
UROS (uroporphyrinogen III synthase),1,-0.405,inactive
UROS (uroporphyrinogen III synthase),2,1.25,inactive
UROS (uroporphyrinogen III synthase),3,0.428,inactive
TXNIP (thioredoxin interacting protein),1,0.126,inactive
TXNIP (thioredoxin interacting protein),2,-1.51,inactive
TXNIP (thioredoxin interacting protein),3,-0.254,inactive
UBXN7 (UBX domain protein 7),1,1.57,inactive
UBXN7 (UBX domain protein 7),2,-0.126,inactive
UBXN7 (UBX domain protein 7),3,0.764,inactive
"LOC100505502 (POM121 transmembrane nucleoporin like, pseudogene)",1,1.22,inactive
"LOC100505502 (POM121 transmembrane nucleoporin like, pseudogene)",2,-1.01,inactive
"LOC100505502 (POM121 transmembrane nucleoporin like, pseudogene)",3,-0.422,inactive
ABCF3 (ATP binding cassette subfamily F member 3),1,-0.57,inactive
ABCF3 (ATP binding cassette subfamily F member 3),2,0.202,inactive
ABCF3 (ATP binding cassette subfamily F member 3),3,0.392,inactive
ZNF253 (zinc finger protein 253),1,0.698,inactive
ZNF253 (zinc finger protein 253),2,1.68,inactive
ZNF253 (zinc finger protein 253),3,-0.804,inactive
GULP1 (GULP PTB domain containing engulfment adaptor 1),1,-0.375,inactive
GULP1 (GULP PTB domain containing engulfment adaptor 1),2,1.77,inactive
GULP1 (GULP PTB domain containing engulfment adaptor 1),3,-0.285,inactive
TNIP3 (TNFAIP3 interacting protein 3),1,0.583,inactive
TNIP3 (TNFAIP3 interacting protein 3),2,0.786,inactive
TNIP3 (TNFAIP3 interacting protein 3),3,0.246,inactive
NTRK1 (neurotrophic receptor tyrosine kinase 1),1,1.16,inactive
NTRK1 (neurotrophic receptor tyrosine kinase 1),2,1.01,inactive
NTRK1 (neurotrophic receptor tyrosine kinase 1),3,0.124,inactive
"FES (FES proto-oncogene, tyrosine kinase)",1,0.388,inactive
"FES (FES proto-oncogene, tyrosine kinase)",2,-0.394,inactive
"FES (FES proto-oncogene, tyrosine kinase)",3,-2.14,inactive
AP4B1 (adaptor related protein complex 4 subunit beta 1),1,-0.386,inactive
AP4B1 (adaptor related protein complex 4 subunit beta 1),2,0.49,inactive
AP4B1 (adaptor related protein complex 4 subunit beta 1),3,1.58,inactive
KRI1 (KRI1 homolog),1,-0.644,inactive
KRI1 (KRI1 homolog),2,1.72,inactive
KRI1 (KRI1 homolog),3,-0.164,inactive
TP53INP1 (tumor protein p53 inducible nuclear protein 1),1,-2.69,inactive
TP53INP1 (tumor protein p53 inducible nuclear protein 1),2,2.05,inactive
TP53INP1 (tumor protein p53 inducible nuclear protein 1),3,-0.86,inactive
HORMAD2 (HORMA domain containing 2),1,0.389,inactive
HORMAD2 (HORMA domain containing 2),2,-0.435,inactive
HORMAD2 (HORMA domain containing 2),3,-0.416,inactive
IL19 (interleukin 19),1,-1.92,inactive
IL19 (interleukin 19),2,2.35,inactive
IL19 (interleukin 19),3,1.99,inactive
ATP13A3 (ATPase 13A3),1,-0.637,inactive
ATP13A3 (ATPase 13A3),2,0.939,inactive
ATP13A3 (ATPase 13A3),3,0.389,inactive
AMDHD2 (amidohydrolase domain containing 2),1,-1.29,inactive
AMDHD2 (amidohydrolase domain containing 2),2,0.646,inactive
AMDHD2 (amidohydrolase domain containing 2),3,0.0528,inactive

Records above called active (2):
gene symbol,reagent no.,"total luciferase, z-score",call
PRPF19 (pre-mRNA processing factor 19),2,3.98,active
PRPF19 (pre-mRNA processing factor 19),3,4.18,active
